Assay results taken from PubChem BioAssay AID2685 (National Center for Advancing Translational Sciences (NCATS), 2010).
Some of the results follow. The main result of the screen is listed elsewhere. These columns were measured beside it and carry no call. The list favours compounds with an active or inconclusive main result. The note in brackets gives the kind of curve behind each potency; many fits are weak.

Assay: qHTS Assay for Lipid Storage Modulators in Drosophila S3 Cells;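 as to cell number change: cells counted by Cell Tracker Red CMTPX staining in the red channel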
Details: BODIPY lipid droplet fluorescence, 18-24 h; for cell number change: measured here: cell count max response, cells fed with added oleic acid
How it was run: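 Laser-scanning cytometry quantifies lipid droplet accumulation (500–530 nm total intensity; droplet/cell object ratio) in oleic acid-fed (400 uM added) Drosophila S3 cells treated with a concentration series. 20 uM Triacsin C defined 100% inhibition.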

[1] = measured here: lipid fluorescence (Fed channel) AC50, cells fed with added oleic acid
[2] = measured here: cell number channel AC50, cells fed with added oleic acid

`CC(C)c1ccc(/C=N/NC(=O)c2ccc(-n3cnnn3)cc2)cc1` gave a cell number change of 23%.

With `CC(=O)c1cccc(NC(=O)C2=CC(c3ccco3)=NS(=O)(=O)N2C)c1` the AC50 [1] was 29.1 µM [rising, single point].

With `CCOC(=O)Cc1csc(NC(=O)CSc2cc(Cl)ccc2Cl)n1` the cell number change was 40.8%, the AC50 [2] was 20.6 µM [rising, single point] and the AC50 [1] was 20.6 µM [rising, partial curve].

For `COc1cccc(NC(=O)CSc2nncn2N)c1`, the cell number change was -2.51% and the AC50 [1] was 18.4 µM [falling, single point].

In the case of `Cc1cc(N2CCN(c3ccccn3)CC2)n2cc(-c3ccccc3)nc2n1`, the AC50 [2] is reported as 0.731 µM [rising, single point].

In the case of `CN(CCOc1ccc(-c2ccn(S(=O)(=O)c3c(Cl)cccc3Cl)n2)cc1)c1ccccn1`, the cell number change is reported as 8.98% and the AC50 [1] is reported as 0.517 µM [rising, single point].

With `CCN(C(=O)c1cn(C)c(=O)c2cc(OC)c(OC)cc12)c1cc(C)ccc1C` the cell number change was 4.95% and the AC50 [1] was 29.1 µM [falling, single point].

For `COc1ccccc1C(=O)O/N=C(\N)c1ccccc1Cl`, the cell number change was 3.81% and the AC50 [1] was 0.82 µM [rising, full curve, poor fit].

With `CC12CCC(C(=O)N(c3ccccn3)c3ccccn3)(OC1=O)C2(C)C` (stereo unspecified) the cell number change was 15.3% and the AC50 [1] was 23.1 µM [falling, partial curve].

For `O=C(CSCc1ccc(Cl)cc1)Nc1ccc2c(c1)OCCO2`, the cell number change was 7.73% and the AC50 [1] was 0.291 µM [rising, partial curve, poor fit].

`COc1cc([N+](=O)[O-])ccc1NC(=O)NCc1ccccn1` showed a cell number change of 4.96%.

With `CN(C(=O)CS(=O)(=O)c1cccc(Cl)c1)c1ccccc1` the cell number change was -18.8%.

For `CCCCCn1c(C)c2c(OCC)cccc(=O)c2c1C`, the cell number change was 39.8%, the AC50 [2] was 6.51 µM [rising, partial curve] and the AC50 [1] was 2.06 µM [rising, partial curve, poor fit].

With `COc1ccc(C(=O)Nc2ccc(S(=O)(=O)NC(C)C)cc2)cc1` the cell number change was 50.7%, the AC50 [2] was 1.46 µM [rising, full curve] and the AC50 [1] was 2.06 µM [rising, partial curve].

With `Cc1ccc(NC(=O)c2sc3nc(N)c(C#N)cc3c2N)cc1` the cell number change was -33.8%, the AC50 [2] was 11.6 µM [falling, single point] and the AC50 [1] was 10.3 µM [falling, single point].

Compound `Cc1ccc(C(=O)O)cc1-n1c(=O)n(Cc2ccccc2)c(=O)c2[nH]cnc21` has a cell number change of -26.4%.

For `CCC(=O)/C=C1\Sc2ccccc2N1CC`, the cell number change was 17.8% and the AC50 [1] was 9.2 µM [rising, partial curve, poor fit].

In the case of `Brc1ccc(-c2cn3ccccc3n2)s1`, the cell number change is reported as 58.9%, the AC50 [2] is reported as 4.11 µM [rising, partial curve] and the AC50 [1] is reported as 2.31 µM [rising, partial curve].

In the case of `COC(=O)CC1=C(C(=O)OC)C(c2cc(OC)c(OC)cc2OC)C(C#N)=C(N)O1` (stereo unspecified), the cell number change is reported as 12.7% and the AC50 [1] is reported as 0.0326 µM [rising, full curve, poor fit].

`CC1CC(C)CN(C(=O)c2ccc(NS(=O)(=O)c3ccc4[nH]c(=O)[nH]c4c3)cc2)C1` (stereo unspecified) showed a cell number change of 16.8%.

In the case of `Cc1cc(Cl)ccc1OC(C)C(=O)OCC(=O)Nc1ccc2[nH]c(=O)[nH]c2c1` (stereo unspecified), the cell number change is reported as -36.7%, the AC50 [2] is reported as 29.1 µM [falling, single point] and the AC50 [1] is reported as 0.0058 µM [rising, full curve, poor fit].

For `O=C(O)c1ccccc1C(=O)NC1CCCc2ccccc21` (stereo unspecified), the cell number change was -12.1%.

For `O=C(NCCCn1ccnc1)c1ccco1`, the cell number change was -5.7% and the AC50 [1] was 25.9 µM [falling, partial curve].

For `Cc1cc(C(=O)NNC(=O)c2c(-c3c(Cl)cccc3Cl)noc2C)no1`, the cell number change was 10% and the AC50 [1] was 0.13 µM [rising, full curve, poor fit].

`O=S(=O)(Nc1ccccc1Cl)c1ccc(NS(=O)(=O)c2cccs2)cc1` showed a cell number change of 14.4%.

For `CN(Cc1ccccc1)C(=O)c1ccccc1NC(=O)c1ccccc1`, the cell number change was 9.1% and the AC50 [1] was 0.0058 µM [falling, full curve, poor fit].

In the case of `Cc1nnc(NC(=O)Cn2c(=O)sc3ccccc32)s1`, the cell number change is reported as -70.2%, the AC50 [2] is reported as 5.8 µM [falling, partial curve, poor fit] and the AC50 [1] is reported as 10.3 µM [falling, partial curve].

`C=CCOc1cccc(C2C(C(=O)c3cc4ccccc4o3)=C(O)C(=O)N2c2cc(C)on2)c1` (stereo unspecified) showed a cell number change of 8.66%.

For `CCC(C(=O)NCCCN1CC(C)CC(C)C1)n1nc(C)c2sc3ccccc3c2c1=O` (stereo unspecified), the cell number change was -3.54% and the AC50 [1] was 29.1 µM [rising, single point].

For `CS(=O)(=O)c1ccc(Cl)c(NC(=O)c2cccc(N3C(=O)CCC3=O)c2)c1`, the cell number change was 14.7% and the AC50 [1] was 0.13 µM [falling, full curve, poor fit].

Work on `COCCNC(=O)COc1ccc(C)cc1C` yielded a cell number change of 2.38%.

For `COc1ccc(Nc2oc(COc3ccccc3OC)nc2C#N)cc1`, the cell number change was 18.6% and the AC50 [1] was 1.84 µM [rising, partial curve].

In the case of `CCCCC(=O)Nc1nc(-c2ccc(S(=O)(=O)N3CCOCC3)cc2)cs1`, the cell number change is reported as 4.8% and the AC50 [1] is reported as 16.4 µM [falling, single point].

In the case of `O=C(NC1=NCCS1)[C@H](Cc1ccccc1)N1C(=O)c2ccccc2C1=O`, the cell number change is reported as 23.8% and the AC50 [1] is reported as 0.82 µM [falling, full curve].

With `COc1ccc(CNC(=O)CNC(=O)c2c(C)nn(C)c2Cl)cc1` the AC50 [1] was 18.4 µM [falling, single point].

With `CCOC(=O)c1nn(-c2ccc(F)cc2)c(=O)c(C#N)c1C` the cell number change was -15.8% and the AC50 [1] was 29.1 µM [rising, single point].

In the case of `COc1nc2c(s1)C(=O)NCCC2`, the cell number change is reported as -22.7% and the AC50 [1] is reported as 18.4 µM [falling, partial curve].

With `CC(=O)c1ccc(S(=O)(=O)N2CCN(c3nc(-c4cccnc4)nc4ccccc34)CC2)cc1` the cell number change was -4.79% and the AC50 [1] was 6.51 µM [rising, partial curve, poor fit].

In the case of `CN(CC(=O)Nc1cccc(F)c1)C(=O)c1ccc(NC2CC2)c([N+](=O)[O-])c1`, the cell number change is reported as 3.64% and the AC50 [1] is reported as 0.58 µM [rising, full curve, poor fit].

With `CCOc1ccccc1-n1c(=O)c2ccccc2c2ccccc2c1=O` the cell number change was -36.4%, the AC50 [2] was 2.31 µM [falling, partial curve] and the AC50 [1] was 1.64 µM [falling, partial curve].
